Source: publication PMC5712553, “A Novel TetR Family Transcriptional Regulator, CalR3, Negatively Controls Calcimycin Biosynthesis in Streptomyces chartreusis NRRL 3882”

Biological target: T1, CalR3 (Streptomyces chartreusis NRRL 3882) (UniProt F8QZR9)
T1 sequence (looked up, limits assumed): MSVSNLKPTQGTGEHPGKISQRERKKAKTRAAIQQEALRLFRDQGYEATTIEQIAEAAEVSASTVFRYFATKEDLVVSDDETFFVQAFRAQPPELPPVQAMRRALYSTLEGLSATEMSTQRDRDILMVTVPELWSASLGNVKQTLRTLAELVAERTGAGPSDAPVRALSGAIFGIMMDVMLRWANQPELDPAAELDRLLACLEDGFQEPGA
Test: EMSA
Conditions: EMSA: 20 mM Tris-Cl pH 8.0, 100 mM KCl, 10 mM DTT, 37 C, 30 min, 20 ul, recombinant protein, protein details: N-terminal His6 (pET28a), probe letters rebuilt from the primers and the genome

Measured: binding result

CCAGCCGGTAAAGAGCGAGCCTCATGACAGGCAACCTTCTTTTAGGAGTCGACTTTCAATTGATAGCCTACTAGCACTTTGAGGAGATGAGAACTCCTCCTCGCTGCCACC (double strand) [T-R3L]
binds more weakly: WT fermentation supernatant extract | calcimycin (1.9 mM), dissociates CalR3 | cezomycin (0.95 mM), dissociates CalR3

For at least one entry, the source does not settle the construct or the ends of the probe. Weaker means in comparison with the reference protein, sequence or condition of that experiment. Tags and fusion partners may be left off the protein sequences shown.
